Counter-ions that a name gives are not always drawn. Like-named read-outs stand apart in the source and are kept apart here.

For assay [1], the system named is arachnoidal cyst in the cerebropontine angle.
For assay [2], the system named is sensorineural loss of hearing from ototoxic drugs and viral or bacterial infection.
Assay [3] deals with neuropathy of the auditory nerve after tuberculose meningitis.
[4] abbreviates: after the second course of treatment.

Turning to `COc1cc2c(cc1OC)C(=O)C(CC1CCN(Cc3ccccc3)CC1)C2` (centres unmarked) [ARICEPT®, donepezil hydrochloride], the headaches entry in assay [1] (setting [4]) is “less frequent”. Further, the “slit between the lids when closing the right eye” value in assay [1] (setting [4]) was 2 mm. The “movements of the mouth angle” value in assay [1] (after the third course) is listed as “restored”. Besides, in assay [1] (after the third course), the palpebral fissure entry was “closing completely”. The “MRI, cyst” value in assay [1] (after treatment) is on record as “insignificant decrease of the cyst”. Moreover, the “function of CN VII” value in assay [1] (follow-up examination in six months) is “no dysfunction of CN VII was observed”. Moreover, the “hearing increased by” value in assay [1] (person, decrease in hearing by 40 dB, 2.5 mg twice a day for 25 days with CARBAMAZEPINE 200 mg two times a day) is 5 dB. Further, the hearing improvement in assay [2] (10 patients 4-5 years, loss 50-70 dB, 0.625 mg once a day for 20 days, between the third and the fifth courses) is 5-15 dB. Moreover, the “effect of further courses” value in assay [2] (after the fifth course, up to 8 courses) is “didn't yield any improvement”. The effect of treatment result in assay [3] (patient 5-7 years, hearing loss of 95 dB, three courses 1.25 mg two times a day during 20 days) is “no positive effects”. The “hearing improved by” value in assay [3] (two patients 5-7 years after relapse, 3 to 5 courses of twenty days every three months) is 5-10 dB; in assay [3] (two patients 5-7 years, loss 60-70 dB, after 3 courses), 5-10 dB; in assay [3] (two patients deaf since 6 and 12 months, threshold over 95 dB, 1.25 mg twice a day, after the 8th course), 5-10 dB. In addition, in assay [3] (two patients 5-7 years, after the improvement), the “hearing after a cold or flu” value is on record as “returned to the initial level”.
